# Structures can show the parent of a compound that is named as a salt. Some of the results follow. Repeats are few or missing, and single values can be far off.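 Primary human fetal astrocytes engulfed labelled rat cortical synaptosomes, measured as a red/green ratio corrected for calcein live-cell signal and scaled to the plate median. Toxicity meant calcein falling over 30%; decreased phagocytosis meant below 70% of median above 5 µM.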
# How the values were obtained:
# Human fetal astrocytes [1] = test: loss of total cells relative to no-compound high-control median (toxicity); higher = more toxic (fewer cells); settings: 24 h
# Human fetal astrocytes [2] = test: synaptosome phagocytosis (pHrodo/calcein intensity ratio) relative to plate median of data wells; higher = more phagocytosis; settings: 24 h
SMILES,loss of total cells (Human fetal astrocytes [1]; 1.39 µM),loss of total cells (Human fetal astrocytes [1]; 2.78 µM),loss of total cells (Human fetal astrocytes [1]; 5.56 µM),loss of total cells (Human fetal astrocytes [1]; 11.11 µM),loss of total cells (Human fetal astrocytes [1]; 22.22 µM),synaptosome phagocytosis (Human fetal astrocytes [2]; 1.39 µM),synaptosome phagocytosis (Human fetal astrocytes [2]; 2.78 µM),synaptosome phagocytosis (Human fetal astrocytes [2]; 5.56 µM),synaptosome phagocytosis (Human fetal astrocytes [2]; 11.11 µM),synaptosome phagocytosis (Human fetal astrocytes [2]; 22.22 µM)
O=C(O)[C@@H]1[C@H](C(=O)O)[C@H]2CC[C@@H]1O2 [Endothall],-10.5%,-0.9%,-4.1%,-9.4%,3.2%,65%,84.2%,99%,119%,118%
CCCn1c(C)c(C(=O)c2cccc3ccccc23)c2ccccc21,-20.4%,12.2%,6.1%,-2.9%,-4.7%,94.3%,121%,95.1%,58.2%,85.2%
"CC(N)C(O)c1ccc(O)c(O)c1 (single isomer, unassigned; (-)) [(-)-alpha-Methylnorepinephrine]",11.3%,-13.7%,5.8%,11.2%,2.4%,114%,113%,94.8%,130%,113%
O=C(CCCN1CCC2(CC1)C(=O)NCN2c1ccccc1)c1ccc(F)cc1 [Spiperone hydrochloride],-18.3%,-27.8%,-11.8%,-18.8%,-54.3%,75.1%,77.4%,75.9%,80.2%,103%
"CN(C(=O)Cc1ccc(Cl)c(Cl)c1)C(CN1CCCC1)c1cccc(OCC(=O)O)c1 (stereo not given) [ICI 204,448 hydrochloride]",-1.4%,10.4%,-9.9%,1%,-19.6%,103%,85.1%,91.3%,112%,109%
S=C=Nc1cccc(C2(N3CCCCC3)CCCCC2)c1 [Metaphit methanesulfonate],-10.9%,0.5%,6.1%,9.5%,33.6%,81.1%,125%,110%,124%,78.2%
O=C(O)c1cc[c]([Hg][Cl])cc1 [4-Chloromercuribenzoic acid],-4.4%,-10.2%,-29%,-7.6%,4.9%,111%,116%,128%,117%,107%
COc1cc(CCN)ccc1O [3-Methoxy-4-hydroxyphenethylamine hydrochloride],-14.7%,12.2%,-8.9%,9.5%,-15%,85.4%,54.4%,102%,79.2%,100%
CN1CCC(c2c[nH]c3ccc(O)cc23)CC1,-19.1%,-25%,-12.4%,-14.8%,-0.4%,104%,102%,125%,107%,109%
NCCc1c[nH]c2ccc(C(N)=O)cc12 [5-Carboxamidotryptamine maleate],13%,-23.1%,-4.9%,-13.9%,0%,130%,83.6%,80.6%,109%,115%
Cc1nnc2ccc(-c3cccc(C(F)(F)F)c3)nn12,1.4%,5.9%,25.8%,4.8%,29.9%,105%,97.6%,83.5%,135%,117%
C[C@]12CC[C@H](O)CC1=CC[C@@H]1[C@@H]2CC[C@]2(C)C(=O)CC[C@@H]12 [trans-Dehydroandrosterone],-8.8%,-20.5%,-9.9%,-3.1%,-4%,121%,113%,104%,98.6%,72.2%
CCCN1CCC[C@@H](c2cccc(O)c2)C1 [S(-)-3PPP hydrochloride],-17.1%,-21.3%,-9%,-8%,-28.8%,90.6%,109%,106%,134%,130%
NNCc1cccc(O)c1 [3-Hydroxybenzylhydrazine dihydrochloride],-12.1%,-29.9%,11.5%,-13%,1.6%,99.1%,125%,122%,121%,111%
NCc1cc(O)no1 [Muscimol hydrobromide],-0.4%,-18.8%,4.1%,-7.6%,8%,120%,103%,105%,115%,108%
NC(=O)COc1c(F)cc(SCCNS(=O)(=O)c2ccccc2)cc1F,1.4%,-4.1%,3.3%,11.4%,10.3%,66%,88.8%,91.5%,104%,76.6%
"CN1CCc2cc(O)cc3c2[C@H]1Cc1ccc(O)c(O)c1-3 [R(-)-2,10,11-Trihydroxyaporphine hybrobromide]",-2.9%,-18.8%,8.2%,-3.1%,21.6%,121%,96.2%,111%,107%,64.1%

# 2 records picked at random from those above, as already listed:
SMILES,loss of total cells (Human fetal astrocytes [1]; 1.39 µM),loss of total cells (Human fetal astrocytes [1]; 2.78 µM),loss of total cells (Human fetal astrocytes [1]; 5.56 µM),loss of total cells (Human fetal astrocytes [1]; 11.11 µM),loss of total cells (Human fetal astrocytes [1]; 22.22 µM),synaptosome phagocytosis (Human fetal astrocytes [2]; 1.39 µM),synaptosome phagocytosis (Human fetal astrocytes [2]; 2.78 µM),synaptosome phagocytosis (Human fetal astrocytes [2]; 5.56 µM),synaptosome phagocytosis (Human fetal astrocytes [2]; 11.11 µM),synaptosome phagocytosis (Human fetal astrocytes [2]; 22.22 µM)
CCCN1CCC[C@@H](c2cccc(O)c2)C1 [S(-)-3PPP hydrochloride],-17.1%,-21.3%,-9%,-8%,-28.8%,90.6%,109%,106%,134%,130%
CCCn1c(C)c(C(=O)c2cccc3ccccc23)c2ccccc21,-20.4%,12.2%,6.1%,-2.9%,-4.7%,94.3%,121%,95.1%,58.2%,85.2%

# Next part.

SMILES,loss of total cells (Human fetal astrocytes [1]; 1.39 µM),loss of total cells (Human fetal astrocytes [1]; 2.78 µM),loss of total cells (Human fetal astrocytes [1]; 5.56 µM),loss of total cells (Human fetal astrocytes [1]; 11.11 µM),loss of total cells (Human fetal astrocytes [1]; 22.22 µM),synaptosome phagocytosis (Human fetal astrocytes [2]; 1.39 µM),synaptosome phagocytosis (Human fetal astrocytes [2]; 2.78 µM),synaptosome phagocytosis (Human fetal astrocytes [2]; 5.56 µM),synaptosome phagocytosis (Human fetal astrocytes [2]; 11.11 µM),synaptosome phagocytosis (Human fetal astrocytes [2]; 22.22 µM)
"C[C@@H](N)Cc1cnc[nH]1 [Histamine, R(-)-alpha-methyl-, dihydrochloride]",-5.4%,-20.5%,4.1%,-8.5%,0%,80.7%,110%,117%,108%,95.8%
COc1ccc2c(c[n+](C)c3c4cc5c(cc4ccc23)OCO5)c1OC [Chelerythrine chloride],-9.9%,-4.2%,-36.4%,9.4%,50.8%,106%,97.6%,78%,44.3%,2.8%
CO[C@H]1CC=C2CCN3CCC4=C(CC(=O)OC4)[C@]23C1 [Dihydro-beta-erythroidine hydrobromide],-6.3%,-0.9%,18.9%,-1.3%,-1.6%,91%,110%,73.9%,100%,113%
CCCN1CCc2cccc3c2[C@H]1Cc1ccc(O)c(O)c1-3 [R(-)-Propylnorapomorphine hydrochloride],-3.8%,-14.5%,12.3%,12.1%,12%,140%,101%,88.5%,88%,39.4%
C=C(C)[C@@H]1[C@H]2OC(=O)[C@@H]1[C@]1(O)C[C@H]3OC34C(=O)O[C@H]2[C@@]41C.CC(C)(O)[C@@H]1[C@H]2OC(=O)[C@@H]1[C@]1(O)C[C@H]3OC34C(=O)O[C@H]2[C@@]41C (stereo not given in full) [Picrotoxin],-10.9%,-5%,-2.3%,13.3%,-1.9%,,,,,
CCCCC/C=C\C/C=C\C/C=C\C/C=C\CCCC(=O)NCC(=O)O [N-arachidonylglycine],-3.3%,2.1%,5.1%,-2.2%,10.9%,115%,104%,104%,119%,121%
O=C(OC1CCN(CCCl)CC1)C(c1ccccc1)c1ccccc1 [4-Diphenylacetoxy-N-(2-chloroethyl)piperidine hydrochloride],5.4%,-11.1%,1.6%,-1.3%,-12.8%,99.3%,84.5%,111%,108%,65.4%
C/C=C(/C)C(=O)O[C@H]1C(C)=C2[C@H]([C@@H]1OC(=O)CCCCCCC)[C@@](C)(OC(C)=O)C[C@H](OC(=O)CCC)[C@@]1(O)[C@H]2OC(=O)[C@@]1(C)O [Thapsigargin],-18.3%,-0.3%,5.1%,20.3%,6.6%,85.1%,79.6%,86.1%,29%,61.2%
"C[C@]12CC[C@@H](O)C[C@@H]1CC[C@@H]1[C@@H]2CC[C@]2(C)[C@@H](C(=O)CO)CC[C@@H]12 [3-alpha,21-Dihydroxy-5-alpha-pregnan-20-one]",-0.5%,1.4%,23%,12.4%,7.5%,118%,122%,136%,82.9%,102%
Oc1ccc2c3c1O[C@H]1c4[nH]c5ccccc5c4C[C@@]4(O)[C@@H](C2)N(CC2CC2)CC[C@]314 [Naltrindole hydrochloride],-6.2%,-1.4%,7%,17.1%,6.5%,70.6%,67.8%,86%,80.8%,64%
CCCN1CCC[C@@H]2Cc3nc(N)ncc3C[C@H]21 [Quinelorane dihydrochloride],-20.8%,-27.8%,-5.6%,-31.8%,-46.9%,82.7%,108%,102%,98%,101%
CCCCCCCCC(=O)NCc1ccc(O)c(OC)c1 [N-Vanillylnonanamide],-5.9%,-9.3%,-16.3%,5%,-9.9%,108%,102%,96.7%,99%,114%
C=CCN1CC[C@]23c4c5ccc(O)c4O[C@H]2/C(=N/N=C2\CC[C@@]4(O)[C@H]6Cc7ccc(O)c8c7[C@@]4(CCN6CC=C)[C@H]2O8)CC[C@@]3(O)[C@H]1C5 [Naloxonazine dihydrochloride],-6.2%,5.9%,1.4%,13.3%,38.3%,88.6%,139%,109%,133%,141%
CCCN(CCC)CCc1ccc(O)c(O)c1 [Dipropyldopamine hydrobromide],-18.8%,-10.3%,-9.1%,-13%,11.2%,111%,86.6%,72.7%,105%,109%
O=C1CC[C@@]2(O)[C@H]3Cc4ccc(O)c5c4[C@@]2(CCN3CC2CC2)[C@H]1O5 [Naltrexone hydrochloride],-19.4%,14%,20.2%,7.6%,9.3%,100%,113%,86.4%,132%,107%
N=C(N)NN [Aminoguanidine hydrochloride],-8.4%,-12.9%,-3.2%,-15.7%,13.9%,124%,95.9%,69.1%,107%,111%

# Source: the supplement of paper PMC10689618
